Assay results: the supplement of paper PMC6078165

Tested on: Hs578T
Assay: relative JC-1 red fluorescence (viability) vs pre-drug, coculture with fibroblast (fraction); higher = more viable cancer cells
Conditions: 100 µM
Protocol: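 JC-1 labelled TNBC cells cocultured 1:1 (1,500 cells each) with CellTrace Violet stained primary or stromal fibroblasts in 384-well plates in FluoroBrite medium, treated with one of 42 anticancer drugs at 0.1, 1, 10 or 100 uM. JC-1 red fluorescence (mitochondrial integrity in cancer cells only) was read by plate reader every 8 h for 72 h. Values are normalised to each well's pre-drug value. The stock of one drug was tenfold lower, so its dose labels may be too high.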

CCN(CC)CCNC(=O)c1c(C)[nH]c(/C=C2\C(=O)Nc3ccc(F)cc32)c1C [Sunitinib]
Conditions	relative JC-1 red fluorescence
8 h	0.458
16 h	0.372
24 h	0.373
32 h	0.383
40 h	0.353
48 h	0.328
56 h	0.323
64 h	0.296
72 h	0.277

relative JC-1 red fluorescence
Conditions	8 h	16 h	24 h	32 h	40 h	48 h	56 h	64 h	72 h
coculture fibroblast: C12385	0.471	0.243	0.241	0.188	0.164	0.159	0.137	0.121	0.114
coculture fibroblast: H6013	0.301	0.255	0.241	0.226	0.21	0.21	0.184	0.172	0.151
coculture fibroblast: H6019	0.366	0.26	0.282	0.221	0.21	0.212	0.203	0.189	0.178
coculture fibroblast: H6076	0.417	0.355	0.34	0.341	0.3165	0.309	0.297	0.279	0.264
coculture fibroblast: H6231	0.435	0.359	0.357	0.37	0.333	0.339	0.325	0.319	0.312
coculture fibroblast: HADF	0.4	0.364	0.352	0.333	0.313	0.313	0.283	0.268	0.241
coculture fibroblast: HCFa	0.433	0.362	0.339	0.33	0.312	0.316	0.296	0.277	0.243
coculture fibroblast: HCPF	0.451	0.357	0.349	0.357	0.314	0.307	0.305	0.272	0.253
coculture fibroblast: HHSteC	0.439	0.378	0.363	0.348	0.3206	0.312	0.293	0.278	0.244
coculture fibroblast: HMF	0.398	0.372	0.377	0.407	0.39	0.4	0.412	0.415	0.412
coculture fibroblast: HPFa	0.61	0.333	0.313	0.292	0.285	0.279	0.256	0.248	0.216
coculture fibroblast: HUF	0.648	0.359	0.337	0.27	0.242	0.234	0.204	0.188	0.177
coculture fibroblast: Hs27A	0.386	0.266	0.259	0.262	0.241	0.261	0.239	0.239	0.223
coculture fibroblast: Hs343T	0.348	0.301	0.306	0.316	0.294	0.297	0.29	0.292	0.297
coculture fibroblast: WS1	0.344	0.309	0.278	0.213	0.186	0.194	0.174	0.162	0.155

The reference is the same well before dosing, and untreated signal decays as well.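 Labels refer to human fibroblasts, largely primary: uterine (C12385, HUF), lung (H6013), bone (Hs27A), adrenal (HADF), skin (WS1), plus mammary HMF and breast cancer-associated Hs343T. Cancer lines are basal-like or mesenchymal-like triple-negative breast cancer. The paper counts as hits responses shifting over 3x the replicate standard deviation. The tissue of the other fibroblasts is not given here.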
